Assay results as given in the supplement of paper PMC3334620.
Over roughly 33,000 sequences, “E-score (-0.5 to 0.5)” has its median near -0.0034; the highest 2% begin near 0.25. Some of the results follow.

What follows are sequences tested against T1, Yap3 (UniProt P38749) (assay: PBM E-score (8-mer binding enrichment) (E-score (-0.5 to 0.5)); higher = stronger / more preferred TF binding). Settings: protein concentration: 100 nM; construct: GST-full length.
T1 sequence: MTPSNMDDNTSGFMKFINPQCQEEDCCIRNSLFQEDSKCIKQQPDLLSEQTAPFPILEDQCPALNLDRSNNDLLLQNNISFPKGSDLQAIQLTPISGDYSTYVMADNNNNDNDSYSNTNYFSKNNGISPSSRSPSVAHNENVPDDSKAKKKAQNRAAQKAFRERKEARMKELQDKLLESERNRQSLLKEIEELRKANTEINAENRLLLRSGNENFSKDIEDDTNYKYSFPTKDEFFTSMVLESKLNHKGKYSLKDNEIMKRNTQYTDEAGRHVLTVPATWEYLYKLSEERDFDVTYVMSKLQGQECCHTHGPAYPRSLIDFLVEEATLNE
Method in brief: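 Universal all-10-mer Agilent arrays, double-stranded by primer extension on fresh or once-stripped slides, were probed with about 100-200 nM GST-tagged yeast transcription factors made by PURExpress. Fluorescent anti-GST detected bound protein, and masliner normalised the scans. E-scores from the Universal PBM Analysis Suite were given to each ungapped eight-base word pooled with its reverse complement.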

| Sequence | PBM E-score |
| --- | --- |
| AGGTTAAA | 0.0393 |
| ACACAGAC | -0.00753 |
| CGAGGGCG | -0.279 |
| AGTACATA | 0.0785 |
| GCAGTTCC | -0.195 |
| ATTCTCAA | 0.224 |
| CAGCTTGA | 0.0312 |
| AGTCTAAG | 0.127 |
| CGCTCCCC | -0.385 |
| TCCTCAAA | -0.0561 |
| AAATGCTA | 0.0794 |
| AACGGGCA | -0.0363 |
| AGAATATA | 0.14 |
| AATGCATC | 0.0492 |
| GGCCGACC | -0.217 |
| TATGCAAA | -0.0403 |
| AGGGTAAT | 0.0724 |
| ACGATTCA | -0.12 |
| CTTACGCA | 0.172 |
| AATACGTC | 0.188 |
| CACTGGCA | -0.0333 |
| CGGAGGCC | -0.345 |
| CTATTGAA | 0.0827 |
| CCAGCTCG | -0.0962 |
| TCATACAA | 0.246 |

| Sequence | PBM E-score |
| --- | --- |
| ATATTCTG | 0.164 |
| ACTTGTCC | 0.0688 |
| ATTAGCGA | 0.107 |
| ATTACATC | 0.154 |
| CTAAGGTA | 0.0717 |
| AGACTACA | 0.00993 |
| AATCGTCT | 0.00963 |
| CAGGTTCG | -0.102 |
| ACGCTTAG | 0.04 |
| AGGCGTCA | -0.105 |
| AGTGTATG | 0.0576 |
| CTAAGGAC | 0.0225 |
| TTAAGTAA | 0.202 |
| GACAAAAC | 0.179 |
| ATTTATGC | 0.0664 |
| CGGGGACC | -0.178 |
| AAGCATTC | 0.148 |
| ATTCCGAG | 0.227 |
| AGCCGCAG | -0.245 |
| CGTAATCC | 0.285 |
| GAGAGACA | -0.12 |
| ACTGTACC | -0.0379 |
| ACAAGCCT | -0.0702 |
| AGGTATAT | 0.212 |
| TAGTGACA | 0.162 |

| Sequence | PBM E-score |
| --- | --- |
| GGTAGCTA | -0.179 |
| AGATAAGG | -0.0911 |
| ATTGTCAG | 0.131 |
| AGCGACCC | -0.303 |
| AGGGGATC | -0.167 |
| GTCTGCAA | -0.0254 |
| ACCTCAGC | -0.0506 |
| ATTAGCTC | -0.00222 |
| CCGCACCG | -0.101 |
| ATAACCTA | 0.112 |
| CTTGCCGA | -0.092 |
| GGGGCGCA | -0.228 |
| ACACGCTC | 0.00032 |
| CAGACTCG | -0.126 |
| ATCTAGCC | -0.0943 |
| ACATTGAA | 0.173 |
| GGGCCTGA | -0.275 |
| CACTCGCC | -0.00819 |
| AGCCTACA | -0.0329 |
| ACCGTGAA | 0.00275 |
| AGGGCATG | -0.178 |
| CGTACAGA | 0.0498 |
| GACGAATA | 0.163 |
| AATATGAG | 0.0655 |
| ATCTTCAA | 0.116 |

| Sequence | PBM E-score |
| --- | --- |
| AAGGAATG | 0.0437 |
| ACAGGTGC | -0.162 |
| ACTGATGG | -0.173 |
| AGTGCCAG | -0.24 |
| ACGTAGTA | -0.0131 |
| ACGGGCGA | -0.249 |
| CAACAGCC | -0.0309 |
| CCGGTACA | -0.0509 |
| ATGTCATC | 0.0326 |
| CACGAAGA | 0.201 |
| ATTACGGA | 0.295 |
| GGAAAAGA | -0.0533 |
| AGGATCTA | -0.236 |
| GATGTAAA | 0.189 |
| TCGTAACA | 0.123 |
| AATCCCGT | 0.183 |
| GGCCGCAC | -0.16 |
| ATGGAACA | 0.0389 |
| AGGGAAAC | -0.125 |
| TATGATCA | 0.202 |
| GATCCGAA | 0.213 |
| AGAGGTAA | -0.0121 |
| CCCTTAGC | -0.14 |
| CGTTAAAC | 0.174 |
| CACTAAAA | 0.237 |

| Sequence | PBM E-score |
| --- | --- |
| AACGAAGA | 0.107 |
| GGCCGAAA | -0.0138 |
| CTCCTTGC | -0.121 |
| AGAATGGG | -0.0646 |
| CCTATGGC | -0.128 |
| AAACGGTC | -0.0399 |
| ACTCAGGA | -0.111 |
| GCCGCGCA | -0.149 |
| GCGGTAAC | 0.0126 |
| AAGATCGG | -0.143 |
| AAAACGTG | 0.141 |
| CTCACTGA | -0.0204 |
| CACCGGCC | -0.414 |
| GGGCAGAC | -0.272 |
| AAAAGTTA | 0.195 |
| GCGTACGC | -0.192 |
| ACTTTCGA | 0.0591 |
| GGCAGTGA | -0.194 |
| CAAAAGAG | 0.0429 |
| AATCGGCA | 0.159 |
| CCAGCCCG | -0.258 |
| TCTTTCCA | -0.0501 |
| CCTACAGG | -0.225 |
| ATAACAAG | 0.228 |
| AAAGGTAA | 0.0127 |

| Sequence | PBM E-score |
| --- | --- |
| AATTCAAC | 0.153 |
| CGATGGAC | -0.0566 |
| ATATTTGG | 0.197 |
| CTCCGGAA | -0.108 |
| ACTATCCG | 0.164 |
| GACTACGC | -0.139 |
| AGCGTAAT | 0.122 |
| ATTTACTC | 0.191 |
| TAAACCAA | 0.0441 |
| ACGGGCCG | -0.187 |
| AGGATGTG | 0.0295 |
| TCCAGTCA | -0.168 |
| GATTTAGC | 0.0449 |
| CGGCTGCC | -0.211 |
| GACGTCCC | -0.168 |
| AGAACATG | 0.0504 |
| CGGTATCA | 0.0719 |
| CCAACGGG | -0.0913 |
| TGCTTAAA | 0.0707 |
| GCCCTTCA | -0.186 |
| CATGTATC | 0.155 |
| AGGTCGGA | -0.0278 |
| AGTAGGGG | 0.0208 |
| AGTCTTCA | -0.0504 |
| AACGAGGC | -0.162 |

Taken from above:
GCCCTTCA – PBM E-score: -0.186
AGTAGGGG – PBM E-score: 0.0208
AATTCAAC – PBM E-score: 0.153
GACGTCCC – PBM E-score: -0.168
AGGATGTG – PBM E-score: 0.0295

Part of the list above, as labelled records:
AGCGTAAT
  PBM E-score = 0.122
ATTTACTC
  PBM E-score = 0.191

The list goes on:

| Sequence | PBM E-score |
| --- | --- |
| AAAGTTGT | 0.172 |
| ATTATGAG | 0.117 |
| ATCCACAG | 0.00624 |
| ATTAGACG | 0.104 |
| ATTGAATA | 0.256 |
| CGAACGGC | -0.038 |
| GGCTGTGA | -0.0277 |
| GAGCAACC | -0.0218 |
| GGAGACCC | -0.273 |
| GCATGACA | -0.0537 |
| ATAGACAT | 0.0285 |
| CTTCGGCC | -0.0359 |
| AACCAAAT | 0.128 |
| CTGCGTTA | -0.0516 |
| GATTGCCA | -0.0247 |
| ATTGCGAG | 0.0202 |
| AATCGACA | 0.258 |
| ACTCGTCG | -0.00308 |
| TATTTTCA | 0.168 |
| AGCTACCT | -0.111 |
| TCTGGGAA | -0.0103 |
| GTTCTAGA | -0.0536 |
